Assay [1] addresses mouse SMAD1 C-domain bait (GAL4DBD fusion) (mouse) (UniProt P04386+P70340). Nature of the assay: yeast two-hybrid.
Assay [2] deals with mouse SMAD5 C-domain bait (GAL4DBD fusion) (mouse) (UniProt P04386+P97454). Nature of the assay: yeast two-hybrid.

By UniProt entry, the sequences of proteins in these tests, tags left out. Where a name states a change or a piece, a line headed by the entry shows the natural chain unless it says otherwise. Residues count along the entry.
UniProt P04386: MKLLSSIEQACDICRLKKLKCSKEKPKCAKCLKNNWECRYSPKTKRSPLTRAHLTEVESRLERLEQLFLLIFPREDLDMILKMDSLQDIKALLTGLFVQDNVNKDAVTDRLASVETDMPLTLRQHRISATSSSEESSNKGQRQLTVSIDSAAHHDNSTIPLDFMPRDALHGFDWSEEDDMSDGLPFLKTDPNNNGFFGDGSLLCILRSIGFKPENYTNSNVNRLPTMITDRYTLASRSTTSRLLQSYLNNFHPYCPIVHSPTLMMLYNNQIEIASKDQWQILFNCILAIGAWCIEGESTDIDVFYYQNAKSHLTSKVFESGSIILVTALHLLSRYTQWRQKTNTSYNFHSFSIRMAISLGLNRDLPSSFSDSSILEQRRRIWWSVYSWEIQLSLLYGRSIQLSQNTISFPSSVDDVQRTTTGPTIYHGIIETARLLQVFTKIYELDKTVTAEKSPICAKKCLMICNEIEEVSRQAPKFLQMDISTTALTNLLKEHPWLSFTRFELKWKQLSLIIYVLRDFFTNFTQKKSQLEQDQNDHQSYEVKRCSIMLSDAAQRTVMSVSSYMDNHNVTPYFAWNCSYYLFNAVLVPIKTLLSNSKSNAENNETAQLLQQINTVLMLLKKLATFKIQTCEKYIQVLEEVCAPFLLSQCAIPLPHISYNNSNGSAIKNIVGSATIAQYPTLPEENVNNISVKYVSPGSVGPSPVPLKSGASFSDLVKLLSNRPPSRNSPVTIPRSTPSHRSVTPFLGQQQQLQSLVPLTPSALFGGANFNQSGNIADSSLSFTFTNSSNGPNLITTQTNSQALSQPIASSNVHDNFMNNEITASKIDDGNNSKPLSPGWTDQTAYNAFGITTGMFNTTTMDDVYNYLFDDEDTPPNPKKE
UniProt P70340: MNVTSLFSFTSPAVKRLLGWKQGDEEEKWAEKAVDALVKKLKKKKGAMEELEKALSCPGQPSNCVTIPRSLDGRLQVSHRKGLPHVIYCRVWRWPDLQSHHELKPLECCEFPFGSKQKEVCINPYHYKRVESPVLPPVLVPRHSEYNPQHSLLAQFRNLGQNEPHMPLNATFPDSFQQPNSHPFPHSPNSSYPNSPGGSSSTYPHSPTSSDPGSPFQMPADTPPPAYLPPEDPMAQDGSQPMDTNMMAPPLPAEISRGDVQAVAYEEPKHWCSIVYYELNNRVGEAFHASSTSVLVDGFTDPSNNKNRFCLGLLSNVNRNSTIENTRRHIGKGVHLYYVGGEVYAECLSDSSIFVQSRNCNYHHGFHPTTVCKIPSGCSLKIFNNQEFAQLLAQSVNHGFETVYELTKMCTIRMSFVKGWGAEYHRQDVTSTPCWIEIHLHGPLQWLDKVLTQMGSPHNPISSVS
UniProt P97454: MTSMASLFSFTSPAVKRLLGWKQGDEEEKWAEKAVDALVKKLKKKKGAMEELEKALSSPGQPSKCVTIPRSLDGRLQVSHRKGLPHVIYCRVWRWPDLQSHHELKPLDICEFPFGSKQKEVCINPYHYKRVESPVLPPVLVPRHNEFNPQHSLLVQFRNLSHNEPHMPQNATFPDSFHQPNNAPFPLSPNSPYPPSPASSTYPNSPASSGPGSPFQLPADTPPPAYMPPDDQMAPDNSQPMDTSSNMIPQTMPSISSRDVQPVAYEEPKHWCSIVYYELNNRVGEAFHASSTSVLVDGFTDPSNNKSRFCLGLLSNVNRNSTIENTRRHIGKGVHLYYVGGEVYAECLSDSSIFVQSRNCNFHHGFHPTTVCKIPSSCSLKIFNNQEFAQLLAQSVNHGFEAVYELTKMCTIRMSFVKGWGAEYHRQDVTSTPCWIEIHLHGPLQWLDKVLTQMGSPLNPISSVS
UniProt P97471, residues 252-551: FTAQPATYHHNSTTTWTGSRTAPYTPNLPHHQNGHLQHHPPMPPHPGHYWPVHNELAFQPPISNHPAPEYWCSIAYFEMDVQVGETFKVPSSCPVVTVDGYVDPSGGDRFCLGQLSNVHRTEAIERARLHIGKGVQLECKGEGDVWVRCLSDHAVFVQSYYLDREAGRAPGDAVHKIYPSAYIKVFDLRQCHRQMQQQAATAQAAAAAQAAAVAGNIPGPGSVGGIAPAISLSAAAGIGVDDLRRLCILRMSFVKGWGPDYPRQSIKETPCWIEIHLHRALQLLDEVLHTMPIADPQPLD

Results are given in words; binding and its absence hold for the method and conditions named. Some binding calls cover weakened binding; strength is not graded here.

We go through 1 substance from patent US20020035246A1.

As to “TH72 prey protein (GAL4TAD fused in-frame to a partial SMAD4 starting at amino acid 252) (from UniProt P97471 252-551)”, the binding entry in assay [1] and in assay [2] was “binds” throughout.
